From article PMC11549337 come the findings set out here.

The chains behind the UniProt entries cited, without tags or fusion partners.
UniProt P58801: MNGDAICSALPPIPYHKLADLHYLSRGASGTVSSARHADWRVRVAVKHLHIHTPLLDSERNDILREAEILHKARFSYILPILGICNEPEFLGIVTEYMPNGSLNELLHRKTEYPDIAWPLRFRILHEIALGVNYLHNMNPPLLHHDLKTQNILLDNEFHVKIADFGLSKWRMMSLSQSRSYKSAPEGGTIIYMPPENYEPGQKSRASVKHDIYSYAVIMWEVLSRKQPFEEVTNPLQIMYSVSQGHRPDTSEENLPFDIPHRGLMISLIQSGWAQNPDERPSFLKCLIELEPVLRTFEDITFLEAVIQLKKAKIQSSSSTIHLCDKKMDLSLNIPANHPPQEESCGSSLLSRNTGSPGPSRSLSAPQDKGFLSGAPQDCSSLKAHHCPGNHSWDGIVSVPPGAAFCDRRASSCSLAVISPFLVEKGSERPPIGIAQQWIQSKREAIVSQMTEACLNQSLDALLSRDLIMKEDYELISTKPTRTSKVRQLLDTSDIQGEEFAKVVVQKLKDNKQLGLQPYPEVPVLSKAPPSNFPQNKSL
UniProt Q60989: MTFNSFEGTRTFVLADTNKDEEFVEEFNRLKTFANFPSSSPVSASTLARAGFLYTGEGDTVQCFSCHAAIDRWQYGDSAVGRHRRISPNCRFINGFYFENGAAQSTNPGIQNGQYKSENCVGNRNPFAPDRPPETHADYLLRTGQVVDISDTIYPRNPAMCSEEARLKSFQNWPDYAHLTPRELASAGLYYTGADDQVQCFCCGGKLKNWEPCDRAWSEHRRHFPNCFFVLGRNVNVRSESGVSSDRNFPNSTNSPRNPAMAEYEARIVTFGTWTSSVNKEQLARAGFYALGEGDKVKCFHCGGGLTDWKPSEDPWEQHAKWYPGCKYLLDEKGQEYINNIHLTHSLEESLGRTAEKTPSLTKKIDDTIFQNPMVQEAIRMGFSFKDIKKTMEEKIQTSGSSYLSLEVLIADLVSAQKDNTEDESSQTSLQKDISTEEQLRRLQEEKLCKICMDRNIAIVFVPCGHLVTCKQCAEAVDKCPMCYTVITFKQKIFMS

These are yes or no findings as the source states them, for the method shown. Binding seen in cells or lysates may run through a third protein. Some entries that bind do so weakly or less than the wild type. For part of these data: Tags and fused reporters may be left off the sequences shown.

Experiment [1] addresses T1, YOD1 (mouse (endogenous in RAW264.7 cells and BMDMs)) (UniProt Q8CB27).
T1 sequence: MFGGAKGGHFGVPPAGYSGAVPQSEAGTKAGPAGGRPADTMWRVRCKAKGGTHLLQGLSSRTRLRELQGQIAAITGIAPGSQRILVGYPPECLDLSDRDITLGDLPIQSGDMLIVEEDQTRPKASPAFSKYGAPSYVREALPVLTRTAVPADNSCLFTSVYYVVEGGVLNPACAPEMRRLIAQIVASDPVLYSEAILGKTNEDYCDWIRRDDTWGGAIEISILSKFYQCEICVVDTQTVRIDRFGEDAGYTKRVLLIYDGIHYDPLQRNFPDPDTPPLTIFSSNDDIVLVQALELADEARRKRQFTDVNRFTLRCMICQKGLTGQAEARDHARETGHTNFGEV
Nature of the experiment: co-IP; anti-YOD1 antibody immunoprecipitation from BMDM lysate (RIPA buffer), western blot; endogenous proteins. (In general: Immunoblotting shows a protein as a band on a membrane.)

A further experiment addresses T2, FLAG-YOD1 (mouse) (UniProt Q8CB27).
T2 sequence: T1 sequence
Nature of the experiment: co-IP; NIH/3T3 cells transfected with GFP-RIPK2 and FLAG-YOD1 plasmids (full length or truncated) for 24 h, in the truncation panel MG132 20 μM for 6 h before lysis; anti-FLAG immunoprecipitation, western blot.

In experiment [2] the target is receptor-interacting serine/threonine kinase 2 (RIPK2) (mouse (endogenous in RAW264.7 cells and BMDMs)) (UniProt P58801). Nature of the experiment: co-IP; anti-RIPK2 antibody immunoprecipitation from BMDMs of Yod1+/+ and Yod1-/- mice stimulated with L18-MDP (200 ng/ml) for the indicated time points, western blot; endogenous proteins.

With “receptor-interacting serine/threonine kinase 2 (RIPK2) (from UniProt P58801 1-539)”, in experiment [1], the binding entry is “binds”.
Consider GFP-RIPK2 (from UniProt P58801 1-539), for which, in the experiment with FLAG-YOD1 (mouse), the binding entry is “binds”.
Consider “XIAP (from UniProt Q60989 1-496) (enzyme)”, for which, in experiment [2], the binding entry is reported as “binds”.
